Residue numbers refer to the chain shown, from its start. No constants are given. Whether binding was seen depends on the method and setting. Binding seen in cells or lysates may run through a third protein. Some entries that bind do so weakly or less than the wild type. Sequences can lack the tags named with a protein.

Amino acid sequences for entries named in this document (tags omitted). Residues count along the entry.
UniProt P04629, residues 33-796: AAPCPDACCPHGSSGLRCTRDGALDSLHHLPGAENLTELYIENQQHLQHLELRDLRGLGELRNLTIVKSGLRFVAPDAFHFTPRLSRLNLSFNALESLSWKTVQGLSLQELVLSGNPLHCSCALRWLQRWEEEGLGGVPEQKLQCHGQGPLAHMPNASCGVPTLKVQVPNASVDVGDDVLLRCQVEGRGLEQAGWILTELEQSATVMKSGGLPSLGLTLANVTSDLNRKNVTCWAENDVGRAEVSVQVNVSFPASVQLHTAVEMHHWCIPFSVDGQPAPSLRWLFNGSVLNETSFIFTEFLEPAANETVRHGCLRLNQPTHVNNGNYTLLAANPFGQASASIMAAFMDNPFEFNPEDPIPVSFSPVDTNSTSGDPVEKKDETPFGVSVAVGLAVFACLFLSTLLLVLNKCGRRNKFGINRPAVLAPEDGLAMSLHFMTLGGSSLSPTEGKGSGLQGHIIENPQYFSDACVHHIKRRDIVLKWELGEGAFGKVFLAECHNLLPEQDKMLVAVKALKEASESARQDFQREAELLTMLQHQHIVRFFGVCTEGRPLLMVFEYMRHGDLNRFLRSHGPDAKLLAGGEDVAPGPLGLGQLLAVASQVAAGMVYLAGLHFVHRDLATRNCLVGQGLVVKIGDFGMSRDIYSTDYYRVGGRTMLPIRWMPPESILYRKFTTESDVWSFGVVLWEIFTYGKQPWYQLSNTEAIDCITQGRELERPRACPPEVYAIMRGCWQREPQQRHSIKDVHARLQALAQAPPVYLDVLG

Here are results for 4 molecules from paper PMC4795689.

In test [1] the target is T1, hP2X7R-WT fused at the C-terminus to Cerulean or cp49Venus (human) (UniProt Q99572).
T1 sequence: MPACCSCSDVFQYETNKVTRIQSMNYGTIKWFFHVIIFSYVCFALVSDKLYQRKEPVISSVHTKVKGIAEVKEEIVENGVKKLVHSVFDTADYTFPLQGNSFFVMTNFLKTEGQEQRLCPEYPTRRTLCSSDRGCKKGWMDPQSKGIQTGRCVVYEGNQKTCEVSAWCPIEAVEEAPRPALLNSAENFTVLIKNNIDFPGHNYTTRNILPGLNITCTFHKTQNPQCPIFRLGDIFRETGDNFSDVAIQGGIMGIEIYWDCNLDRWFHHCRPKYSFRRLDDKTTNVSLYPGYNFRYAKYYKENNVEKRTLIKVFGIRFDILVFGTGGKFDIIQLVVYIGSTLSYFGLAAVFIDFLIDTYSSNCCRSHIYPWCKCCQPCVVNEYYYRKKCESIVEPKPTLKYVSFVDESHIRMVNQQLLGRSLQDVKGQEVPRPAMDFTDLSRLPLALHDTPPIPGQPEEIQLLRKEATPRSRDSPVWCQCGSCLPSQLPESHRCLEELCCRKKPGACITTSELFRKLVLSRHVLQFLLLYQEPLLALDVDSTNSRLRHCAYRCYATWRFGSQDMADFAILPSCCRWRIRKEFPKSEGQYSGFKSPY
The experiment in a line: FRET or BRET; sensitised-emission FRET (Cerulean donor, cp49Venus acceptor) in living transfected HEK293 cells at 37°C; confocal; NFRET by PixFRET, quantified in ROIs at the cell membrane.

Test [2] has as its target T2, STREP-tagged hP2X7R-WT (human) (UniProt Q99572).
T2 sequence: T1 sequence
Nature of the test: co-IP; HEK293 clones stably co-expressing STREP-hP2X7R-WT and HIS-hP2X7R-Gln460Arg; membrane fractions; modified RIPA buffer (Triton X-100 1%, SDS 0.1%); IP with anti-STREP or anti-HIS, immunoblot with the same antibodies; mock IP with normal mouse IgG. On the technique in general: A western blot detects proteins with antibodies after separation by electrophoresis.

Test [3] has as its target hP2X7R-Gln460Arg fused at the C-terminus to Cerulean or cp49Venus (human) (UniProt Q99572). Nature of the test: FRET or BRET; sensitised-emission FRET (Cerulean donor, cp49Venus acceptor) in living transfected HEK293 cells at 37°C; confocal; NFRET by PixFRET, quantified in ROIs at the cell membrane. In general terms: In BRET a luciferase serves as donor, and the signal depends on an acceptor being close.

On to “tyrosine kinase receptor A (TRKA) fused to Venus (from UniProt P04629 33-796)”, for which the binding result in test [1] is recorded as “no binding”.

B1: HIS-tagged hP2X7R-Gln460Arg (receptor, UniProt Q99572 1-595)
chain: T1 sequence with Q460R
On to B1, for which the binding entry in test [2] is recorded as “binds”.

B2: hP2X7R-Gln460Arg fused at the C-terminus to Cerulean or cp49Venus (receptor, UniProt Q99572 1-595)
chain: T1 sequence with Q460R
As for B2, the binding result in test [1] and in test [3] was “binds” throughout.

B3: hP2X7R-WT fused at the C-terminus to Cerulean or cp49Venus (receptor, UniProt Q99572 1-595)
chain: T1 sequence
On to B3, for which, in test [1], the binding entry is recorded as “binds”.
